According to publication PMC8373069:
No constants are given. Whether binding was seen depends on the method and setting. Some entries that bind do so weakly or less than the wild type.

Protein sequences, listed by entry. Tags and fused reporters are not part of them.
UniProt Q16531: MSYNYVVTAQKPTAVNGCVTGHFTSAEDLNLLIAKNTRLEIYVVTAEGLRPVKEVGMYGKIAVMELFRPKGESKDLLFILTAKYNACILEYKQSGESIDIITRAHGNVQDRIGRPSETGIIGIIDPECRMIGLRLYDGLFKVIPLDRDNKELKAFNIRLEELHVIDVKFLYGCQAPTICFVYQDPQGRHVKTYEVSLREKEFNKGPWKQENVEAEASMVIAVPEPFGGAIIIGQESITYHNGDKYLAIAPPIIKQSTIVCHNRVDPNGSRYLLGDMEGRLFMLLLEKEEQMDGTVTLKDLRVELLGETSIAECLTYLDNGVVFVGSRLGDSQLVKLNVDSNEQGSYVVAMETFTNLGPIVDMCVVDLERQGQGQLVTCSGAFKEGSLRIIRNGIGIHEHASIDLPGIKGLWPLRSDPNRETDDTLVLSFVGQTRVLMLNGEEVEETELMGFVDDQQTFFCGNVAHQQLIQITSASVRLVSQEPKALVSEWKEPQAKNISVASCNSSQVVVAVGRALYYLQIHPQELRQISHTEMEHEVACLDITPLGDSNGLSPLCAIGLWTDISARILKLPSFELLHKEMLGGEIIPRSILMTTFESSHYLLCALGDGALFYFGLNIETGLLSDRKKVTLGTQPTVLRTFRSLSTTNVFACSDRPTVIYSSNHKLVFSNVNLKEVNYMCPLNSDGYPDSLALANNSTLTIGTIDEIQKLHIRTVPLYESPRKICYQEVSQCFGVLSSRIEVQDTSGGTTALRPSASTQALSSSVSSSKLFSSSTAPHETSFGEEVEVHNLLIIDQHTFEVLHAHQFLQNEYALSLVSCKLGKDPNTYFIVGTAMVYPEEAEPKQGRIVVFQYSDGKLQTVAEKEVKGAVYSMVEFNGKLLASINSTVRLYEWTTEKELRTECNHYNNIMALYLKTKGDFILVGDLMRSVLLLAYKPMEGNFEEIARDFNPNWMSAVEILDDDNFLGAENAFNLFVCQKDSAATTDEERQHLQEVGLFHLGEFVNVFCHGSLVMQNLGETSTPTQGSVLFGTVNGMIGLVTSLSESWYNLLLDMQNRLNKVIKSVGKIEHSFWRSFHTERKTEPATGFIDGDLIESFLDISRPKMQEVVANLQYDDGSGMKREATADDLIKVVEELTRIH
UniProt Q92466: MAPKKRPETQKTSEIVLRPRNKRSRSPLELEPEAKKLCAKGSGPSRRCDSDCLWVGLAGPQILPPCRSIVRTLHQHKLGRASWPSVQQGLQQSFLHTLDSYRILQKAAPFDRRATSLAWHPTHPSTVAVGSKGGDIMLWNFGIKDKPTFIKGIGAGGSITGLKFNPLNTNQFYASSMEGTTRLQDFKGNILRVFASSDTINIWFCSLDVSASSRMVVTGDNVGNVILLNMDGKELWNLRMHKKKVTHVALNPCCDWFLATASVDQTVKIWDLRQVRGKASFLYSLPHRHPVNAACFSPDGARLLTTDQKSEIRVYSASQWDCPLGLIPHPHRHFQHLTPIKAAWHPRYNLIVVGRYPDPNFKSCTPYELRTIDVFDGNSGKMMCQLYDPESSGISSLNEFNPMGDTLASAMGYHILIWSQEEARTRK

Target: His6-DDB1 (UniProt Q16531)
Assay: co-purification (His-Trap, anti-FLAG affinity gel, SEC); His6-DDB1 and DDB2-Flag co-expressed in Sf9 cells, purified in turn on Ni2+ His-Trap, anti-FLAG M2 gel and Superdex 200

For DDB2-Flag (from UniProt Q92466 1-427), which binding is on record?
The binding was “binds”.
